Data from the supplement of paper PMC10849652.
The list shows a part of the results.

The chains behind the UniProt entries cited, without tags or fusion partners. Where a name states a change or a piece, a line headed by the entry shows the natural chain unless it says otherwise.
UniProt Q96RW7: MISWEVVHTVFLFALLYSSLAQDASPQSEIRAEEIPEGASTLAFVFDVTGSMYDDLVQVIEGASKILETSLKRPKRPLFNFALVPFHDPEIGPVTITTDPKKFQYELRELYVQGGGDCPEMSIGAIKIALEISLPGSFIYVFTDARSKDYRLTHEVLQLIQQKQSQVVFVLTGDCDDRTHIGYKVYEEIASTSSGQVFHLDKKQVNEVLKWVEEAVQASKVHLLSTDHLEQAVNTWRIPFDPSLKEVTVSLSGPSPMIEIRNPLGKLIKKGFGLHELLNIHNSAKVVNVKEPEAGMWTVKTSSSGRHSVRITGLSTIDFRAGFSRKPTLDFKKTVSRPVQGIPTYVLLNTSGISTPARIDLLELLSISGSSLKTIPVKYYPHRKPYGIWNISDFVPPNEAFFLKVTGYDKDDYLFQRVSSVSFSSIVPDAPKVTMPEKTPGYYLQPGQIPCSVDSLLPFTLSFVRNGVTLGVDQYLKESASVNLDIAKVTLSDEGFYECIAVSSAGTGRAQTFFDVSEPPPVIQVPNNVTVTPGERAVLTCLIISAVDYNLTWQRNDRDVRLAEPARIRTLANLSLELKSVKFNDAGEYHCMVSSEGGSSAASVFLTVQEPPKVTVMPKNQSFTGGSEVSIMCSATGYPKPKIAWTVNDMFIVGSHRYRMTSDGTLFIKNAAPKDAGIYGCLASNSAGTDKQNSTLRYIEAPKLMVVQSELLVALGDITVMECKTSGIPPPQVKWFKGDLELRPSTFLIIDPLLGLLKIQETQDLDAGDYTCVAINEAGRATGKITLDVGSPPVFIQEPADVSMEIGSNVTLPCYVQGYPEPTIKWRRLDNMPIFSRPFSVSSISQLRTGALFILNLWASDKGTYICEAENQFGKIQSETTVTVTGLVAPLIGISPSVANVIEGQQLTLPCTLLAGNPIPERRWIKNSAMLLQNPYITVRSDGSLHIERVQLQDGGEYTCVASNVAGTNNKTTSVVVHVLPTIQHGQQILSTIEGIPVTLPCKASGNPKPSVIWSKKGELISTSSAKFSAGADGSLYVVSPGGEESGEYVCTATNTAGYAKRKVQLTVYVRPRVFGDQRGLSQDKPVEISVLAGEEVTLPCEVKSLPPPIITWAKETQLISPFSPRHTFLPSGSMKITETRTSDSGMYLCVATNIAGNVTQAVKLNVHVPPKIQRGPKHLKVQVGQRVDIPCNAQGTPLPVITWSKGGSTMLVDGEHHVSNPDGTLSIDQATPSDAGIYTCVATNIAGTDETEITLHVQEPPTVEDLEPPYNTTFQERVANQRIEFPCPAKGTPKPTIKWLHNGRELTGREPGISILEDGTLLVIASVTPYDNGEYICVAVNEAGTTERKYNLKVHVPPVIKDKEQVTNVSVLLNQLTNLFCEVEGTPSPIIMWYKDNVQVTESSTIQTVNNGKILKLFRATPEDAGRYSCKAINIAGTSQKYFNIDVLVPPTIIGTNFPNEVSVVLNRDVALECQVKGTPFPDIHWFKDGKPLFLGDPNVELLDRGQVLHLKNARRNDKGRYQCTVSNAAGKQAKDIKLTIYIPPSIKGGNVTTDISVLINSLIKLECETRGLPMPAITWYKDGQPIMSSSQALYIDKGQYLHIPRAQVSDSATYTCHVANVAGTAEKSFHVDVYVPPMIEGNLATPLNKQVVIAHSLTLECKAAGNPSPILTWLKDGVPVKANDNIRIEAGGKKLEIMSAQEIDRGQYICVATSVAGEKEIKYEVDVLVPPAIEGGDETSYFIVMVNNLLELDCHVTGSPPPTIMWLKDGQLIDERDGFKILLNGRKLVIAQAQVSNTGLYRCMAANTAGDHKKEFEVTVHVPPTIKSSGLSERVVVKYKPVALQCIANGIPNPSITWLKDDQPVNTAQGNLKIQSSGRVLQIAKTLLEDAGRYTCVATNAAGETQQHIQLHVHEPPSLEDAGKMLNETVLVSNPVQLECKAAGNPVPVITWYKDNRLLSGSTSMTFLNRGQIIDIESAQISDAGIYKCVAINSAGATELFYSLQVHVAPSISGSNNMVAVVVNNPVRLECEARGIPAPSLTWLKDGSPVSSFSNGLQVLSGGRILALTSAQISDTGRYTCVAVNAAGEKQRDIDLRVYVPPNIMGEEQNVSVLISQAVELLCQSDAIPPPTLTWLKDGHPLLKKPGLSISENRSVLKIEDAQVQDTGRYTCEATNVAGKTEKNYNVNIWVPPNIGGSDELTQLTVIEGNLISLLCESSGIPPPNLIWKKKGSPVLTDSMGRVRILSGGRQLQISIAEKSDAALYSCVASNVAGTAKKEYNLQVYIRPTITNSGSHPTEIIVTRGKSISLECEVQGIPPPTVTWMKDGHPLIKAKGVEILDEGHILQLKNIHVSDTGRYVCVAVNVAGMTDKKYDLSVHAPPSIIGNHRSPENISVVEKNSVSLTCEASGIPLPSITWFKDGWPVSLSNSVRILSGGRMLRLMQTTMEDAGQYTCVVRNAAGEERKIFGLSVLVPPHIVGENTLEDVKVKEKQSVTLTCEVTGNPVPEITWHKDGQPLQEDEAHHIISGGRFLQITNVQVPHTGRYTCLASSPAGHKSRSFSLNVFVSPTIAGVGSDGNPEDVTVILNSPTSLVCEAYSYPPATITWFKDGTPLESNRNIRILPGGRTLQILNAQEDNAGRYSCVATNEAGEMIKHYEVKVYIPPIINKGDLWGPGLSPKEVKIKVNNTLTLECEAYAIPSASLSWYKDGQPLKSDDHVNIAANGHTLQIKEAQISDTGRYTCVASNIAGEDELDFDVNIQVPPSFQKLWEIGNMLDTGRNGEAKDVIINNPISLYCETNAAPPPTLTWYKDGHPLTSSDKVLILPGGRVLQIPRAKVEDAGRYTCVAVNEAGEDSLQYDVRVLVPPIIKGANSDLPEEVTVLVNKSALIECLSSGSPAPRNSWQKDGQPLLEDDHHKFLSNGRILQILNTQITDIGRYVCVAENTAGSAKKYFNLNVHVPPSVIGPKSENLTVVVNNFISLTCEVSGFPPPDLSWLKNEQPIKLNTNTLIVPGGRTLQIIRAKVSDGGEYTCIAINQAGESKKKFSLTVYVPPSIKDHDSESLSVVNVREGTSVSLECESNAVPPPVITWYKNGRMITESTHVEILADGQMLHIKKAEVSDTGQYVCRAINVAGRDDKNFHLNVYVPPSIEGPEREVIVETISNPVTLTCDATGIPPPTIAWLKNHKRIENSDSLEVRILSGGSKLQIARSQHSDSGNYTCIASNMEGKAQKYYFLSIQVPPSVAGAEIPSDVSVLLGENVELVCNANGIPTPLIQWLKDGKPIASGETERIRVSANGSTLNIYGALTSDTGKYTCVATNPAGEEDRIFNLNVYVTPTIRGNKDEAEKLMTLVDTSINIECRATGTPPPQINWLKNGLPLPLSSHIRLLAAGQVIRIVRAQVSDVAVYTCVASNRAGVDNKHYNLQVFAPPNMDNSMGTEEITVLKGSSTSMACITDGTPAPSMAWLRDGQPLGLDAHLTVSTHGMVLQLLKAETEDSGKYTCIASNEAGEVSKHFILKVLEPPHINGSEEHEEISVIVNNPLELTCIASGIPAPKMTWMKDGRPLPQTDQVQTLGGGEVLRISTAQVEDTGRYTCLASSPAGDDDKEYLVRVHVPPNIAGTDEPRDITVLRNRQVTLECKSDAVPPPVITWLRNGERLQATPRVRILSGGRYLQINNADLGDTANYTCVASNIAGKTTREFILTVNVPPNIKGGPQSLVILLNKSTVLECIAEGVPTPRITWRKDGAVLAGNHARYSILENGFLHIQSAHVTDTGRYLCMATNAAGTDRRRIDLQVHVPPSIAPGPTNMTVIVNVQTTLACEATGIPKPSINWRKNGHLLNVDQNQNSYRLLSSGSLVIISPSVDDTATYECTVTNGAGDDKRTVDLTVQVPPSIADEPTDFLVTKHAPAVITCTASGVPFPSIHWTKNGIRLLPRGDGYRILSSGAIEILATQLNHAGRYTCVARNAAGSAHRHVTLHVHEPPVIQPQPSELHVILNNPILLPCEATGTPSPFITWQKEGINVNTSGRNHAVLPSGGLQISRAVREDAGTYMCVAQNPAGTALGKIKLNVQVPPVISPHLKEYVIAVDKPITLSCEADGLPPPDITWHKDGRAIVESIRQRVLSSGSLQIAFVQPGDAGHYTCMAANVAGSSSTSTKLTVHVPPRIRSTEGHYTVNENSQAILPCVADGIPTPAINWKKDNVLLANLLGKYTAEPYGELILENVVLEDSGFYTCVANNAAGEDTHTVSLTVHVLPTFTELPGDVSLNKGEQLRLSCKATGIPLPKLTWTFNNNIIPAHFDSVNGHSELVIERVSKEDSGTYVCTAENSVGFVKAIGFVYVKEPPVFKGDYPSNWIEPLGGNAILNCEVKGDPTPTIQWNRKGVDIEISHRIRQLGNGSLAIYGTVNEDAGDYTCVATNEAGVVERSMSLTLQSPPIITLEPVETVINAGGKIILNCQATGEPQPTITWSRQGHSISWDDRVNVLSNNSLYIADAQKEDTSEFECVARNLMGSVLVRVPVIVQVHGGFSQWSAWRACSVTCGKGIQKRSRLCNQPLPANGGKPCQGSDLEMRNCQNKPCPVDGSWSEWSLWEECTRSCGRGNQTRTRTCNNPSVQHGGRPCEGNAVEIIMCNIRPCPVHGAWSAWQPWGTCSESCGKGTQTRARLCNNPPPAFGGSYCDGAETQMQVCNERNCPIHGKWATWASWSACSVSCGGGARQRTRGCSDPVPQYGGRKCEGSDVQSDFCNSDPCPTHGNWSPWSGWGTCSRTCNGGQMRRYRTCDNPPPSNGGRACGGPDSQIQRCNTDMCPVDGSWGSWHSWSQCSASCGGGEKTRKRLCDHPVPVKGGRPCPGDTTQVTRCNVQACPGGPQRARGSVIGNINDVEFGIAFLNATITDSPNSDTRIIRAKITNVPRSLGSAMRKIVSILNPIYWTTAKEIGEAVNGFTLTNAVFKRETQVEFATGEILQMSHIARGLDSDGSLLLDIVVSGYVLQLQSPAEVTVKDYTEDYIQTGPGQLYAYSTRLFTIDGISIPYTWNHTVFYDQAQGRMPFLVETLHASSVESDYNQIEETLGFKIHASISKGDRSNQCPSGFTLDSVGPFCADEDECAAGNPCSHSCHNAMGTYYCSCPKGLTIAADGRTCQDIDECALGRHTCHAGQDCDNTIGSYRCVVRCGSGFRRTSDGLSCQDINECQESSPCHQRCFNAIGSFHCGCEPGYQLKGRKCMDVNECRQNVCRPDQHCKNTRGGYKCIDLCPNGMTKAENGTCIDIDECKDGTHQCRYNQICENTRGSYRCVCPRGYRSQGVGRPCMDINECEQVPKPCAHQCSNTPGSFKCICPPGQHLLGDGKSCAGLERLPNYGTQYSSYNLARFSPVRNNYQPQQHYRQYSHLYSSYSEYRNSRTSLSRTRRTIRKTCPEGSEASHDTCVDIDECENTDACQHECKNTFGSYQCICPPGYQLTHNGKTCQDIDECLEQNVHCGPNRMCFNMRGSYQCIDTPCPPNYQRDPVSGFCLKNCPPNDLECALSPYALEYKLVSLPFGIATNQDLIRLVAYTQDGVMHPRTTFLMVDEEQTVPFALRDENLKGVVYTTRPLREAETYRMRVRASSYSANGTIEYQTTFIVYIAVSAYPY
UniProt Q9NQE9: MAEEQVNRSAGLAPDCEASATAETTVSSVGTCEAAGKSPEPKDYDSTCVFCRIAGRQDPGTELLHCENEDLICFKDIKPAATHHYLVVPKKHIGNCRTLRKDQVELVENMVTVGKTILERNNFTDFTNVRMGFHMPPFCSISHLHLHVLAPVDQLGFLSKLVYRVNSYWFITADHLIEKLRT
UniProt Q9UGU5: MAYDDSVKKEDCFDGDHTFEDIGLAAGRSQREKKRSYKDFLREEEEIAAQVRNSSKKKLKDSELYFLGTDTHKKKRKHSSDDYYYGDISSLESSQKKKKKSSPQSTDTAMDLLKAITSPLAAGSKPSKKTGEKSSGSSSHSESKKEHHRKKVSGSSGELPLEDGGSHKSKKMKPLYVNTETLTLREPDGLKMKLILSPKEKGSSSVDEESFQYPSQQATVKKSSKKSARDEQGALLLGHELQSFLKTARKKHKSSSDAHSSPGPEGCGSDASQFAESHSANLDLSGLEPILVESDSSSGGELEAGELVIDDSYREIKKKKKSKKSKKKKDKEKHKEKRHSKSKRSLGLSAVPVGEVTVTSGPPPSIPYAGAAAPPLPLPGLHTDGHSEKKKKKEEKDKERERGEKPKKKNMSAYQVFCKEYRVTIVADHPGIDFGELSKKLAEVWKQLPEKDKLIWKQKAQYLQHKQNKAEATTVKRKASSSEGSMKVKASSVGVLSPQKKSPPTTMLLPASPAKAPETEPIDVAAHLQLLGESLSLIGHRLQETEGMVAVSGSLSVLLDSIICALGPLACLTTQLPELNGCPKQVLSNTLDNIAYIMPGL
UniProt Q9Y241: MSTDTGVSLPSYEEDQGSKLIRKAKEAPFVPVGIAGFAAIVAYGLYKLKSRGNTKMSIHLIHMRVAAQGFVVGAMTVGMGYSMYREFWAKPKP

Key:
Test in all cases: log2 fold change, soluble protein after heating vs DMSO (PISA); higher = thermal stabilisation; K562 cells, 10 uM, 30 min; active = over 0.2 and 3.5 SD of the protein, either way, in both replicates (recomputed)
[1] = compound: COC1=CC=C(C=C1)CN2C=CC3=C2C=C(C=C3)C(=O)NO
Outline: (§1)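 Aliquots of K562 cells (2×10^6 cells/mL) treated with 10 μM compound for 30 min were heated for 3 min over 48°C-58°C. After pooling and extraction in PBS with 0.5% NP-40 at 4°C, soluble protein from a 21,000xg, 90 min spin was quantified by TMTpro 16plex LC-MS/MS with channel sums equalised. Thermal stability is expressed against control samples, from duplicates, as a log2 fold change.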

filanesib = compound: CON(C)C(=O)N1N=C(c2cc(F)ccc2F)S[C@@]1(CCCN)c1ccccc1 [filanesib]
Outline: as §1

zotarolimus = compound: CO[C@H]1C[C@@H]2CC[C@@H](C)[C@@](O)(O2)C(=O)C(=O)N2CCCC[C@H]2C(=O)O[C@H]([C@H](C)C[C@@H]2CC[C@H](n3cnnn3)[C@H](OC)C2)CC(=O)[C@H](C)/C=C(\C)[C@@H](O)[C@@H](OC)C(=O)[C@H](C)C[C@H](C)/C=C/C=C/C=C/1C [zotarolimus]
Outline: as §1

idasanutlin = compound: COc1cc(C(=O)O)ccc1NC(=O)[C@@H]1N[C@@H](CC(C)(C)C)[C@](C#N)(c2ccc(Cl)cc2F)[C@H]1c1cccc(Cl)c1F [idasanutlin]
Outline: as §1

alisertib = compound: COc1cc(Nc2ncc3c(n2)-c2ccc(Cl)cc2C(c2c(F)cccc2OC)=NC3)ccc1C(=O)O [alisertib]
Outline: as §1

[2] = compound: COc1cc2nc(-c3cc(F)ccc3O)nc(N[C@@H]3CNC[C@H]3C(C)(C)O)c2cc1OC
Outline: as §1

gefitinib = compound: COc1cc2ncnc(Nc3ccc(F)c(Cl)c3)c2cc1OCCCN1CCOCC1 [gefitinib]
Outline: as §1

[3] = compound: COc1cccc2cc(-c3nc([C@H]4CC[C@H](C(=O)O)CC4)n4ncnc(N)c34)[nH]c12
Outline: as §1

lapatinib = compound: CS(=O)(=O)CCNCc1ccc(-c2ccc3ncnc(Nc4ccc(OCc5cccc(F)c5)c(Cl)c4)c3c2)o1 [lapatinib]
Outline: as §1

pictilisib = compound: CS(=O)(=O)N1CCN(Cc2cc3nc(-c4cccc5[nH]ncc45)nc(N4CCOCC4)c3s2)CC1 [pictilisib]
Outline: as §1

Measured: log2 fold change

HNRNPDL (UniProt O14979)
inactive: [1] -0.089 | filanesib 0.227 | zotarolimus -0.049 | idasanutlin 0.128 | alisertib -0.07 | [2] 0.032 | gefitinib -0.034 | [3] -0.084 | lapatinib 0.044 | pictilisib -0.032

HNRNPC isoform 2 (UniProt P07910)
inactive: [1] 0.009 | filanesib 0.39 | zotarolimus -0.024 | idasanutlin 0.796 | alisertib -0.052 | [2] -0.041 | gefitinib 0.002 | [3] -0.065 | lapatinib -0.026 | pictilisib 0.065

HUWE1, A0A087X1S3
inactive: [1] 0.022 | filanesib 0.096 | zotarolimus 0.031 | pictilisib -0.099

HSP90B1 (UniProt P14625)
inactive: [1] -0.044 | filanesib -0.025 | zotarolimus 0 | idasanutlin 0.011 | alisertib -0.046 | [2] 0.01 | gefitinib 0.005 | [3] 0.004 | lapatinib -0.043 | pictilisib -0.057

HMCN1 (UniProt Q96RW7)
inactive: [1] -0.194 | filanesib 0.121 | zotarolimus 0.062 | idasanutlin -0.069 | alisertib -0.006 | [2] 0.025 | gefitinib -0.098 | [3] 0.379 | lapatinib 0.029 | pictilisib -0.221

IBTK (UniProt Q9P2D0)
inactive: [1] -0.012 | filanesib 0.357 | zotarolimus -0.028 | idasanutlin 0.289 | [2] 0.042 | gefitinib 0.073 | lapatinib -0.026 | pictilisib -0.126

ICAM5 (UniProt Q9UMF0)
inactive: [1] -0.057 | filanesib 0.046 | zotarolimus -0.099 | idasanutlin -0.036 | alisertib 0.845 | gefitinib -0.014 | [3] 0

HIST2H2BC (UniProt Q6DN03)
inactive: [1] -0.004 | filanesib 0.374 | idasanutlin 0.554 | alisertib 0.092 | [2] -0.2 | gefitinib 0.019 | [3] -0.383 | lapatinib 0.135 | pictilisib -0.092

IBA57 (UniProt Q5T440)
inactive: [1] -0.009 | filanesib -0.039 | zotarolimus -0.012 | idasanutlin -0.001 | alisertib -0.031 | [2] 0.024 | gefitinib 0.03 | [3] 0.076 | lapatinib -0.016 | pictilisib -0.007

HINT3 (UniProt Q9NQE9)
inactive: [1] -0.033 | filanesib -0.048 | zotarolimus -0.017 | idasanutlin 0.06 | alisertib -0.125 | [2] -0.112 | gefitinib 0.02 | [3] 0.071 | lapatinib 0 | pictilisib -0.055

HSPD1 (UniProt P10809)
inactive: [1] -0.011 | filanesib -0.056 | zotarolimus -0.023 | idasanutlin 0.007 | alisertib -0.06 | [2] 0.012 | gefitinib 0.014 | [3] 0.032 | lapatinib -0.054 | pictilisib -0.033

HPRT1 (UniProt P00492)
inactive: [1] -0.175 | filanesib -0.027 | zotarolimus -0.005 | idasanutlin -0.035 | alisertib -0.169 | [2] -0.07 | gefitinib -0.019 | [3] 0.035 | lapatinib 0.054 | pictilisib 0

HNRNPK isoform 2 (UniProt P61978)
inactive: [1] 0.008 | filanesib -0.001 | zotarolimus -0.022 | idasanutlin -0.011 | alisertib -0.004 | [2] -0.035 | gefitinib 0.051 | [3] 0.049 | lapatinib -0.016 | pictilisib 0.004

Quoted at random: 2 entries already listed, in no set order.
HNRNPK isoform 2 (UniProt P61978)
inactive: [1] 0.008 | filanesib -0.001 | zotarolimus -0.022 | idasanutlin -0.011 | alisertib -0.004 | [2] -0.035 | gefitinib 0.051 | [3] 0.049 | lapatinib -0.016 | pictilisib 0.004

IBA57 (UniProt Q5T440)
inactive: [1] -0.009 | filanesib -0.039 | zotarolimus -0.012 | idasanutlin -0.001 | alisertib -0.031 | [2] 0.024 | gefitinib 0.03 | [3] 0.076 | lapatinib -0.016 | pictilisib -0.007

More records.

HSPA2 (UniProt P54652)
inactive: [1] -0.103 | filanesib 0.026 | idasanutlin 0.032 | alisertib -0.077 | gefitinib 0.005 | [3] 0.076

HIKESHI (UniProt Q53FT3)
inactive: [1] -0.051 | filanesib -0.063 | zotarolimus 0.026 | idasanutlin -0.05 | alisertib -0.076 | [2] 0.067 | gefitinib 0.011 | [3] 0.009 | lapatinib -0.021 | pictilisib -0.004

HUWE1 isoform 2 (UniProt Q7Z6Z7)
inactive: filanesib 0.11 | zotarolimus 0.011 | idasanutlin -0.204

HOOK1 (UniProt Q9UJC3)
inactive: idasanutlin 0.069 | [2] 0.014 | lapatinib -0.058

HMGCS2 (UniProt P54868)
inactive: filanesib -0.147

HPS4 isoform 4 (UniProt Q9NQG7)
inactive: [1] -0.12 | gefitinib 0.175 | pictilisib -0.408

HOMER2 (UniProt Q9NSB8)
inactive: zotarolimus 0.046 | idasanutlin -0.045 | alisertib -0.005 | [3] 0.059

HIST2H2AA3 (UniProt Q6FI13)
inactive: [1] 0.46 | zotarolimus -0.048 | idasanutlin 0.584 | alisertib 0 | gefitinib -0.016 | [3] -0.125 | pictilisib -0.235

HMBS (UniProt F5H0P4)
inactive: alisertib 1.56 | [3] -0.2

HMGXB4 (UniProt Q9UGU5)
inactive: zotarolimus -0.107 | [2] 0.255 | lapatinib -0.199

ICOSLG isoform 2 (UniProt O75144)
inactive: alisertib -0.22 | [2] -0.11 | [3] 0.327 | lapatinib 0.033

HSPBAP1 (UniProt Q96EW2)
inactive: [1] -0.141 | zotarolimus -0.117 | idasanutlin 0.159

HYOU1, A0A494C039
inactive: filanesib 0.087 | zotarolimus 0.057 | idasanutlin 0.02 | alisertib -0.118 | gefitinib 0.091 | [3] -0.048 | pictilisib -0.052

ICE1 (UniProt Q9Y2F5)
inactive: [1] -0.224 | filanesib 0.147 | alisertib -0.059 | gefitinib -0.015 | [3] 0.156

HTR1F (UniProt P30939)
inactive: [1] -0.036 | zotarolimus -0.031 | idasanutlin -0.006 | pictilisib 0.125

HLA-A isoform 2 (UniProt P04439)
inactive: zotarolimus 0.082

Quoted from the entries so far (2 entries):
HSPBAP1 (UniProt Q96EW2)
inactive: [1] -0.141 | zotarolimus -0.117 | idasanutlin 0.159

HYOU1, A0A494C039
inactive: filanesib 0.087 | zotarolimus 0.057 | idasanutlin 0.02 | alisertib -0.118 | gefitinib 0.091 | [3] -0.048 | pictilisib -0.052

The results go on:

HMGN5 (UniProt Q5JSK9)
inactive: filanesib 0.064 | zotarolimus -0.12 | idasanutlin 0.013 | alisertib 0.003 | [2] 0.282 | [3] 0.182 | lapatinib -0.265 | pictilisib 0.319

HMG20B (UniProt Q9P0W2)
inactive: [1] -0.085 | zotarolimus -0.01 | gefitinib 0.202 | pictilisib -0.148

ICE2 (UniProt Q659A1)
inactive: zotarolimus 0.055 | idasanutlin 0.042 | pictilisib -0.128

HIGD1A isoform 2 (UniProt Q9Y241)
inactive: [1] -0.005 | filanesib -0.025 | alisertib 0.035 | gefitinib 0.049 | [3] 0.15

HIF1AN (UniProt Q9NWT6)
inactive: [1] -0.044 | idasanutlin -0.093 | alisertib -0.131 | [2] 0.012 | gefitinib 0.034 | [3] -0.118 | lapatinib -0.029 | pictilisib 0.068

HOXD9 (UniProt P28356)
inactive: zotarolimus 0.265 | idasanutlin 0.133 | pictilisib -0.029

ICA1 isoform 2 (UniProt Q05084)
inactive: [1] -0.098 | zotarolimus -0.062 | idasanutlin -0.007 | pictilisib 0.062
